Assay results taken from article PMC12099206.
Construct, isoform or probe ends are uncertain for at least one entry. No signal at the amounts used counts as a negative.

Tested on: GST-CmARF3 (Chrysanthemum morifolium 'Jinba')
Assay: EMSA
Conditions: LightShift Chemiluminescent EMSA Kit (Thermo), 6-10 ug CmARF3 protein, pH and temperature not stated, recombinant protein, protein details: N-terminal GST (pET-60-DEST), label: 5' biotin

Question: Does “AGACAATCGGTATAACGAGACATTATAAATATTAAAACCTGGTCAGTAAAACCTGCATCACTCTTATATCTTAACGCAAGGATATACGCCCACATGTCATGGATCCTCTATGGGATGACC (double strand) [mP42]” bind?
Answer: no binding

Question: Does “AGACAATCGGTATAACGAGACATTATAAATATTAAAACCTGGTCAGTAAAACCTGCATCACTCTTATATCTTAACGCAAGGATATACGCCCACATGTCATGTCTCCTCTATGGGATGACC (double strand) [P4]” bind (competed by unlabeled P4)?
Answer: binds

Question: Does “AGACAATCGGTATAACGATCCATTATAAATATTAAAACCTGGTCAGTAAAACCTGCATCACTCTTATATCTTAACGCAAGGATATACGCCCACATGTCATGGATCCTCTATGGGATGACC (double strand) [mP412]” bind?
Answer: no binding

Question: Does “AGACAATCGGTATAACGATCCATTATAAATATTAAAACCTGGTCAGTAAAACCTGCATCACTCTTATATCTTAACGCAAGGATATACGCCCACATGTCATGTCTCCTCTATGGGATGACC (double strand) [mP41]” bind?
Answer: no binding

Question: Does “AGTGCATTGAGGTAGACAATCGGTATAACGAGACATTATAAATATTAAAACCTGGTCAG (double strand) [P1]” bind?
Answer: no binding

Question: Does “AGTGCATTGAGGTAGACAATCGGTATAACGATCCATTATAAATATTAAAACCTGGTCAG (double strand) [mP1]” bind?
Answer: no binding

Question: Does “ATATATGGCCCACCCACCCATGTGCCCTCCTGGATCCACCAGCTCCTGCCGCTCAATCA (double strand) [mP3]” bind?
Answer: no binding

Question: Does “ATATATGGCCCACCCACCCATGTGCCCTCCTGTCTCCACCAGCTCCTGCCGCTCAATCA (double strand) [P3]” bind?
Answer: no binding

Question: Does “TTAACGCAAGGATATACGCCCACATGTCATGGATCCTCTATGGGATGACCCTCACGTGG (double strand) [mP2]” bind?
Answer: no binding

Question: Does “TTAACGCAAGGATATACGCCCACATGTCATGTCTCCTCTATGGGATGACCCTCACGTGG (double strand) [P2]” bind?
Answer: no binding
